# Test results taken from PubChem BioAssay (Tox21).
# Sequences of proteins named here, by UniProt entry; tags and fusion partners are left off.
# UniProt P14416, whole entry, looked up: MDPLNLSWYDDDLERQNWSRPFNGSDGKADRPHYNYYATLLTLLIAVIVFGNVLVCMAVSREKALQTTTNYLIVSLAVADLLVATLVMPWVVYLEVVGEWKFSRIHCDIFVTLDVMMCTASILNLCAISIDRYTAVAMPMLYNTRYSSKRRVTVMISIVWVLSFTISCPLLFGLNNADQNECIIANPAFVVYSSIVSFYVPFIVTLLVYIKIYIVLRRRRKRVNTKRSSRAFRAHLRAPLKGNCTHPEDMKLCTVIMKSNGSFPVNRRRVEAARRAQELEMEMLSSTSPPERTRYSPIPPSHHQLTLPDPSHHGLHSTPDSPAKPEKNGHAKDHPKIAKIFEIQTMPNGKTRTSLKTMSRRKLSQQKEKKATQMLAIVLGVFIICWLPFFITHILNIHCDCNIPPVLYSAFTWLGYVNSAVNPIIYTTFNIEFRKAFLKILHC
# Where “and” joins values, the source holds several entries; their conditions need not be identical. Equal entries are not always repeated. The shares of active, inactive and inconclusive entries below differ from those in the screen. For some of these results: Where the call is inconclusive, the potency comes from a doubtful curve fit. Calls of active or inactive are those of the source. Unless noted, calls come from the whole dose curve.
# Tests used:
# [1] = Nuclear factor erythroid 2-related factor 2/antioxidant responsive element (Nrf2/ARE) small molecule agonists: luciferase reporter gene qHTS assay in human keratinocytes (AID 1919969); note: nearly all actives have a fitted effect of over 35% in size; note: potency is the fitted concentration of half-maximal effect
# [2] = cAMP Responsive Elements (CRE) small molecule agonists, cell-based qHTS assay (AID 1963590); conditions: CRE-bla HEK293T, beta-lactamase FRET ratio, 3 h; activation: at 92.4 µM (top of the series) unless noted; note: potency is the fitted concentration of half-maximal effect
# Procedure, shortened: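 Agonist mode qHTS in CRE-bla HEK 293T cells: compounds dosed from DMSO for 3 h at 37 C/5% CO2, followed by LiveBLAzer B/G FRET substrate for 2 h at room temperature.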
# [3] = biological target: Beta-2 adrenergic receptor (Homo sapiens) (UniProt P07550); assay: Adrenergic beta2 receptor (ADRB2) small molecule agonists, cell-based qHTS assay (AID 1963593); conditions: CHO-ADRB2 cells, cAMP HTRF, 30 min; note: potency is the fitted concentration of half-maximal effect;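 for activation: CHO cells stably overexpressing human ADRB2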
# Procedure, shortened: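 CHO cells stably over-expressing ADRB2 were plated overnight at 37C, then dosed with compounds plus a stimulation mix containing 100uM IBMX and 25uM Ro-20-1724 for 0.5hr at room temperature. cAMP was measured by HTRF competition, 1hr.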
# [4] = biological target: D(2) dopamine receptor (Homo sapiens) (UniProt P14416); assay: Dopamine D2 receptor (DRD2) small molecule antagonists, cell-based qHTS assay (AID 1963595; active = well fitted inhibition curve with a large enough effect in the signal ratio in the repeat runs, with a control signal flat; inconclusive = weak or mixed curves, or effect the other way; the % refers to the signal ratio); conditions: HEK293-DRD2 cAMP HTRF antagonist mode; activity change, negative = inhibition: at 92.4 µM (top of the series) unless noted
# Procedure, shortened: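 HEK293 cells stably expressing DRD2, preincubated with 0.1 mM Ro20-1724 and compounds 10 min, were stimulated with 200 nM NKH477 plus 12 nM quinpirole for 30 min at room temperature; cAMP measured by HTRF (665/620 nm).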
# [5] = cAMP Responsive Elements (CRE) small molecule antagonists, cell-based qHTS assay (AID 1963591; active = well fitted inhibition curve with a large enough effect in the signal ratio in the repeat runs, not every such curve was filed as active; inconclusive = weak or mixed curves, or effect the other way; the % refers to the signal ratio); conditions: CRE-bla HEK293T, beta-lactamase FRET ratio; activity change, negative = inhibition: at 92.4 µM (top of the series) unless noted
# Procedure, shortened: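 Antagonist mode: test compounds are co-incubated with the adenylyl cyclase activator NKH477 (0.25 uM final) on CRE-bla HEK293T cells for 3 h at 37 °C, followed by LiveBLAzer substrate loading.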
# [6] = biological target: D(2) dopamine receptor (Homo sapiens) (UniProt P14416); assay: Dopamine D2 receptor (DRD2) small molecule agonists, cell-based qHTS assay (AID 1963594); conditions: HEK293-DRD2 cAMP HTRF, agonist mode, 30 min; activation: at 92.4 µM (top of the series) unless noted; note: nearly all actives have a fitted effect of over 35% in size; note: potency is the fitted concentration of half-maximal effect
# Procedure, shortened: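 HEK293 cells stably expressing human DRD2, pre-treated with PDE inhibitor Ro20-1724 (0.1 mM final) and compound 10 min at room temperature, then stimulated with NKH477 (200nM […]) for 30 min. cAMP read by HTRF (665/620 nm).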
# [7] = biological target: Beta-2 adrenergic receptor (Homo sapiens) (UniProt P07550); assay: Adrenergic beta2 receptor (ADRB2) small molecule antagonists, cell-based qHTS assay (AID 1963592); conditions: CHO-ADRB2 cells, isoproterenol-stimulated cAMP HTRF ratio, 0.5 h; activity change, negative = inhibition: at 92.4 µM (top of the series) unless noted; note: nearly all actives have a fitted effect of over 50% in size
# Procedure, shortened: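 Cells (CHO, stable ADRB2 overexpression) incubated 18-20hr at 37C; compounds added from DMSO; agonist mix (1nM isoproterenol, 100uM IBMX, 25uM Ro-20-1724) added; 0.5hr RT; d2-cAMP and anti-cAMP-cryptate added; 1hr RT; 665/615 nm read.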
# [8] = activation: at 92.4 µM (top of the series) unless noted
# % is set by controls: 0 for no effect and ±100 for the full control effect.
smiles,measurement,setting,value
Clc1cc(C(Cl)(Cl)Cl)cnc1Cl,Potency,[1],"inconclusive: 61.1 µM [activator, partial curve, poor fit]"
same,Potency,[2],inactive
same,Potency,[3]; [8],"inconclusive: 0.969 µM [inhibitor, single point]"
same,Potency,[4],inactive
CC(C)OC(=S)S,Potency,[1],active: 15.4 µM
same,Potency,[2],inactive
same,Potency,[3]; [8],"inconclusive: 0.0686 µM [activator, full curve, poor fit]"
Nc1c(Cl)c(Cl)c(Cl)c(Cl)c1Cl,Potency,[1],"inconclusive: 61.1 µM [activator, partial curve, poor fit]"
same,"activity change, negative = inhibition",[5],inconclusive: 13.3%
same,Potency,[3]; [8],"inconclusive: 0.122 µM [inhibitor, full curve, poor fit]"
same,Potency,[6],"inconclusive: 0.0086 µM [rising, full curve]"
Oc1ccc(Cl)cc1Cl,Potency,[1],inactive
same,Potency,[3]; [8],inactive
CC(C)COP(=O)(OCC(C)C)OCC(C)C,Potency,[1],"inconclusive: 0.243 µM [activator, single point]"
same,Potency,[3]; [8],inactive
CCOP(O)OCC,Potency,[1],"inconclusive: 12.2 µM [activator, partial curve]"
same,Potency,[5],inactive
same,Potency,[6],inactive
C=CC=O,Potency,[1],inactive
same,Potency,[3]; [8],"inconclusive: 70.1 µM [activator, single point]"
CCOc1nc(C(Cl)(Cl)Cl)ns1,Potency,[1],"inconclusive: 68.6 µM [activator, single point]"
same,Potency,[2],inactive
same,activation,[3]; [8],inconclusive: 7.7%
same,Potency,[6],"inconclusive: 68.6 µM [rising, single point]"
CC(C)Br,Potency,[1],"inconclusive: 68.7 µM [activator, single point]"
same,Potency,[2],"inconclusive: 61.3 µM [rising, single point]"
same,Potency,[3]; [8],"inconclusive: 6.13 µM [inhibitor, partial curve, poor fit]"
CCc1cccc(C)c1N(C(=O)CCl)[C@@H](C)COC,Potency,[1],"inconclusive: 27.3 µM [activator, partial curve]"
same,"activity change, negative = inhibition",[5],inconclusive: 15.8%
same,activation,[3]; [8],inconclusive: -19%
OCc1ccco1,Potency,[1],"inconclusive: 54.5 µM [activator, partial curve]"
same,Potency,[2],inactive
same,Potency,[3]; [8],"inconclusive: 0.158 µM [inhibitor, partial curve, poor fit]"
O=C(O)CBr,Potency,[1],"inconclusive: 58.7 µM [activator, partial curve, poor fit]"
same,Potency,[2],inactive
same,Potency,[7],inactive
same,activation,[3]; [8],inconclusive: -0.127%
O=C(CCl)CCl,Potency,[1],active: 28.3 µM and active: 27.3 µM
same,Potency,[5],inactive
same,Potency,[3]; [8],"inconclusive: 6.86 µM [inhibitor, single point]"
same,activation,[3]; [8],inconclusive: 47.1%
same,Potency,[6],"inconclusive: 6.86 µM [falling, single point]"
same,Potency,[4],inactive
ClC(Cl)(Cl)Cl,Potency,[1],"inconclusive: 26.8 µM [activator, single point]"
same,activation,[3]; [8],inconclusive: 11.9%
CCC(=O)c1ccc(Cl)cc1,Potency,[1],"inconclusive: 6.11 µM [activator, single point]"
same,Potency,[5],inactive
same,activation,[3]; [8],inconclusive: -10.9%
CCN(CCO)CCO,Potency,[1],inactive
same,Potency,[5],inactive
same,Potency,[3]; [8],inactive
same,Potency,[6],inactive
[O]=[Cd],Potency,[1],"inconclusive: 2.42 µM [activator, single point]"
same,activation,[3]; [8],inconclusive: 17.6%
[O-][Br+2]([O-])O,Potency,[1],inactive
same,Potency,[2],inactive
same,activation,[3]; [8],inconclusive: -0.616% [at 42.5 µM]
Brc1cccc(-c2ccccc2)c1,Potency,[1],inactive
same,Potency,[2],inactive
same,Potency,[3]; [8],inactive
N#CC(O)c1ccccc1 (stereo unspecified),Potency,[1],"inconclusive: 24.3 µM [activator, single point]"
same,Potency,[3]; [8],"inconclusive: 1.37 µM [inhibitor, single point]"
CCC1(CC)C(=O)N=C(O)NC1=O,Potency,[1],inactive
same,Potency,[3]; [8],inactive
C1CS1,Potency,[1],inactive
same,Potency,[5],inactive
same,activation,[3]; [8],inconclusive: 6.45%
O=C/C=C/c1ccccc1,Potency,[1],inconclusive: 61.1 µM [activator]
same,"activity change, negative = inhibition",[5],inconclusive: 12.6%
same,activation,[3]; [8],inconclusive: 7.64% and inconclusive: 39.4% and inconclusive: 0.0286%

# Some of the entries so far, bar-delimited:
smiles | measurement | setting | value
O=C(CCl)CCl | Potency | [3]; [8] | inconclusive: 6.86 µM [inhibitor, single point]
N#CC(O)c1ccccc1 (stereo unspecified) | Potency | [3]; [8] | inconclusive: 1.37 µM [inhibitor, single point]
